Sequences and labels used below:
T1: Ada2 with N terminal 3× FLAG tag (wild type) (S. cerevisiae) (UniProt Q02336)
T1 sequence: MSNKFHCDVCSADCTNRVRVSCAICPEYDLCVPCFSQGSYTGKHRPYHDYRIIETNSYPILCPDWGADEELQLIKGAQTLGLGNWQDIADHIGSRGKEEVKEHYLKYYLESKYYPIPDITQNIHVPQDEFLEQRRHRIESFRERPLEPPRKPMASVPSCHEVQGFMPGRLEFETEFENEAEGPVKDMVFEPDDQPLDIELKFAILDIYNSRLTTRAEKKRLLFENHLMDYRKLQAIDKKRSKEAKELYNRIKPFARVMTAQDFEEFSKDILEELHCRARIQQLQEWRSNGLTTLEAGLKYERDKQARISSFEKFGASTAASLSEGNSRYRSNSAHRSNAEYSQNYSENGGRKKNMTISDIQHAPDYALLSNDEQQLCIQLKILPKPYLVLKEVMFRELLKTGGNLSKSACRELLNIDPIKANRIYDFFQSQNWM

Sequences of proteins named here, by UniProt entry; tags and fusion partners are left off.
UniProt P35177: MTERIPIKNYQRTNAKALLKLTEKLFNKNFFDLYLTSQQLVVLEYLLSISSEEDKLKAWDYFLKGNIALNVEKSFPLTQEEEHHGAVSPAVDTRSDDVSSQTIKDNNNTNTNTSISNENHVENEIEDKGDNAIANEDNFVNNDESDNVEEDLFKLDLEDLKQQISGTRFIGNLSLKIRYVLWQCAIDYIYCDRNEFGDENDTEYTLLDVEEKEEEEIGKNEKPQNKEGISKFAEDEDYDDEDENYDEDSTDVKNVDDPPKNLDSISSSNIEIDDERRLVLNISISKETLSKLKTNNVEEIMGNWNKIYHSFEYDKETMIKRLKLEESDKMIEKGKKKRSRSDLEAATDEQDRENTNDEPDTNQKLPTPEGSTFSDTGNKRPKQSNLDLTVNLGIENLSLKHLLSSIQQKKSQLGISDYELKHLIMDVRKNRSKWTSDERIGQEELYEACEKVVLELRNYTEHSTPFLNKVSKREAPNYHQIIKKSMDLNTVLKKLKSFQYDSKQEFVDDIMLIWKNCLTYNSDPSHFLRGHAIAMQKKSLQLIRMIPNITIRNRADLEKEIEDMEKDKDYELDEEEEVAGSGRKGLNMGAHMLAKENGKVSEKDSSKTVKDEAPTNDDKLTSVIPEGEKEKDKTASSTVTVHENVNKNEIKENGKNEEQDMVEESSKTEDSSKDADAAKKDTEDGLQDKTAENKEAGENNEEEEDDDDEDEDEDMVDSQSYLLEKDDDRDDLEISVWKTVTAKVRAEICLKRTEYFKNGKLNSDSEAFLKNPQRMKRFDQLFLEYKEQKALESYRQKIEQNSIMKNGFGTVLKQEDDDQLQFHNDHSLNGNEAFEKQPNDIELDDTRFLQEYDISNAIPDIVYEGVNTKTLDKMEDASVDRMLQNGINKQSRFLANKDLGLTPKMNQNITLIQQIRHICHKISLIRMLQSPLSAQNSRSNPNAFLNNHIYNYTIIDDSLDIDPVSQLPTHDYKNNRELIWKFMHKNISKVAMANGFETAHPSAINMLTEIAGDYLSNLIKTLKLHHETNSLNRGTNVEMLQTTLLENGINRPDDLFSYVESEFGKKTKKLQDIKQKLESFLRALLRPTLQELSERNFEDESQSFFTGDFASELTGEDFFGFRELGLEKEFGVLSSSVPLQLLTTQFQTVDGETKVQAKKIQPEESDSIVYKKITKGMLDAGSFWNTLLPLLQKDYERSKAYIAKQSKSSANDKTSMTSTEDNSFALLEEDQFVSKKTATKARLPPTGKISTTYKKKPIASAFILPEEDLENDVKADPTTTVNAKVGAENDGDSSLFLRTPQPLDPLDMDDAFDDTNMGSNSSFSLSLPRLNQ

T2: Ada2 ΔSWIRM (Δ residues 353–434) with 3xFlag on the N-terminus (S. cerevisiae) (UniProt Q02336)
T2 sequence: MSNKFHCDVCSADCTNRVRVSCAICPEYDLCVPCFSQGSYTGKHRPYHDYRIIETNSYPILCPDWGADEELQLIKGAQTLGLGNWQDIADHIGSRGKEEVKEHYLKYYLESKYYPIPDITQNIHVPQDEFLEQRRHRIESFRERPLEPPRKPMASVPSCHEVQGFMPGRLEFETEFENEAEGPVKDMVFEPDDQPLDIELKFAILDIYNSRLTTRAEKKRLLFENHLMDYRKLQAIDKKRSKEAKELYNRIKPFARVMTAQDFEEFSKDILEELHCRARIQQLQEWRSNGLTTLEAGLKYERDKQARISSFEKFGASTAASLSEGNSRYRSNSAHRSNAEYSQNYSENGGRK

B1: Ada2 (wild type, endogenous) (protein, UniProt Q02336 1-434)
chain: T1 sequence
B2: Sgf29 (endogenous) (protein, UniProt P25554 1-259)
chain: MDGYWDVVVSSLQDIYNANEVIPFDDELQTKKLNFLNMSKDQLQLHLNTFQEHMENVNRVHRILDNVRSNLSLMLNQSREEKSEENTEDAEEGEGTRMALSQGKKAVGKVGRSYWTSEYNPNAPILVGSEVAYKPRRGSADGEWIQCEVLKVVADGTRFEVRDPEPDELGNSGKVYKCNRKELLLIPPGFPTKNYPPGTKVLARYPETTTFYPAIVIGTKRDGTCRLRFDGEEEVDKETEVTRRLVLPSPTALANLARK
B3: Ada3 (endogenous) (protein, UniProt P32494 1-702)
chain: MPRHGRRGKLPKGEKLPKKEGGDNTPSKLLSSMLKTLDLTFERDIGMLNGKSVRSIPNKKTLLELQSQLDSLNEILGTIARGDQETIEALRKIRDSKNEKQANDEKQETSNADGQHESSTATEETNIIDKGVQSPPKPPPSNEISGTIENDVESIKQAADNMAKEEINEDKDLQVHRDQPREKRPFDSETENRATENENTQRPDNKKQKIDVDKMENDPTVKNPKSEFVVSQTLPRAAAALGLFNEEGLESTGEDFLKKKYNVASYPTNDLKDLLPGELPDMDFSHPKPTNQIQFNTFLAFVENFFKDLSDDNLKFLKMKYIIPDSLQFDKTYDPEVNPFIIPKLGPLYTDVWFKDENDKNSAYKKPSPYSNDASTILPKKSANELDDNALESGSISCGPLLSRLLSAVLKDDNDKSELQSSKIIRDGGLPRTGGEDDIQSFRNNNNDTVDMTLSQENGPSVQTPDNDIDEEASFQAKLAENKGSNGGTTSTLPQQIGWITNGINLDYPTFEERLKRELKYVGIYMNLPKDENNPNSDDPDWVTGREDDEISAELRELQGTLKQVTKKNQKRKAQLIPLVERQLAWQEYSSILEDLDKQIDQAYVKRIRVPKKRKKHHTAASNNVNTGTTSQIAQQKAANSSLKSLLDKRQRWINKIGPLFDKPEIMKRIPNESVFKDMDQEEDEDEADVFAQNTNKDVELN
B4: Spt8 (endogenous) (protein, UniProt P38915 1-602)
chain: MDEVDDILINNQVVDDEEDDEEMLSGLENDSKQDLEGNDDGGEDEEDDDDDDEDDDDDEDEREDDDEQEDDDGEDDAARMDKTATPTNEHQHDEQKAAAAGAGGAGDSGDAVTKIGSEDVKLSDVDGGVGSREASSSTHEASANGEVYEYYKHMLNAAQIADSYNIYPTAAIPIQTHVNALAVSRGLKYLFLGGSDGYIRKYDLLNTLEGKLSLTILQKHSLAESIQNAGILQSYWENEIPQKKSEMKLSANKTDYEPKVSPVHSLEVQSECLFILSGLQNGGITMQGVRYMEGSIAHYFKGRNGHTQIVNILRLNGQEDRFLSGSWDKRLLEWDLQTGDIVNEFKKSRSELSSLEMRPLYSSVDVSGNVNSGKENENADDDMDSLFGDEDEDEKQDAGNEPVETGDGSNGEENKEQISEESLNIVYDESVFMTSGLNGSVHIWDRRMTQSPALSLERGAGVPPWCLSACWGVDGDHVYAGRRNACVEQFDLKMPSKPIHNLKLPSISGPVSCVKAMPNNKHLLCASRDNIRLYNVEIAVDASNSTTKSSKVPFLIVPGHHGGIISNLYLDPTSRFIISTSGNRGWQGNSTDTTLIYDIDLE
B5: Ahc2 (endogenous) (protein, UniProt P25649 1-128)
chain: MITPKGTHDAVAKFQKTDLHQDLDYIVLQQRRTQLETLINERESFVKNLCSLFHKIQNTKNYQEFVDVLAENRDLLREIFTVENGFQKQKWISNDDIPQIDWDKFALDINAYIAENDQLLALYEDGLL
B6: Ahc1 (endogenous) (protein, UniProt Q12433 1-566)
chain: MMSPAQDKLQHQHHNPNSSSSSSSKMTNVYQVTTPKSPQDLENNMDEPFKMDTATSNPDKDSENTQRLKYECAKGEIQNVLNLHIMLNHKHVRHLRRNVQKVNAKLALLETLHKDTGLLNKIERTYQLKIKQHQQHSVLGGHFHDSTATENTNASNYNLSYPVLSDYNINCQPLSSSSNRNLSTTRIPHHHYHTRSKSNGLLLEPSALRPANSNIIDYRLTGSKSLSEAITKPTPVSLPHSNSDGISSPRSSSISPLDEQPGFQILPFKPSQMHLNHRRNYSSTCLTSNSGIIGKTENNEPIFRRYDGILVIITCSKCDRSGFTSAQGIVNHTRLKHSKLYSSQPLAVLNNQKLLPNDKQDPEILSKFKKLNLDPNKDYLPSDIAIPKPQSPINHSENHTRAPKTVKNTPHLEKLYQNKEDFKKLIDMVNETPDDLNEYLKQREIQLRYQKEQEEESSKSDDEASYVPSPSLSATATTTTTTDPPSPPVLSSSLQRKLLRKRKLSLNSSTPMEDLPLRERLRANPTDKKPRKAALLTNELEGPDPAAKSSSYYNLRSKSRLRGSHT

For 6 molecules, binding results are on record in article PMC10226619.

No constants are given. Whether binding was seen depends on the method and setting. Binding seen in cells or lysates may run through a third protein. These calls come from enrichment with a bait or labelling near it, and not all partners need be listed. For part of these data: Where a sequence is shown, tags or fusion partners need not be part of it.

The target in the first test is Spt7 with a C-terminal TAP tag (S. cerevisiae) (UniProt P35177). Description: affinity purification with mass spectrometry; SAGA purified by Spt7-TAP from yeast with WT Ada2 (YCW14): IgG Sepharose, TEV cleavage, HiTrap Q; LC-MS/MS, total spectrum counts normalized to Spt7.
Regarding B1, the binding result is recorded as “binds”.

As for B2, the binding result is on record as “binds”.

In the case of B3, the binding entry is listed as “binds”.

Another test deals with T1, Ada2 with N terminal 3× FLAG tag (wild type) (S. cerevisiae). Nature of the test: affinity purification with mass spectrometry; FLAG-Ada2 WT or ΔSWIRM from 2–4 mg yeast whole cell extract on ANTI-FLAG M2 affinity gel overnight at 4 °C, TBS washes; 3× FLAG peptide elution (TIMSTOF, 2 replicates) or on-resin trypsin digestion (TMT, 1 replicate); abundances normalized to Ada2.
Take B4: the binding result is “binds”.

In the case of B2, the binding result is reported as “binds”.

With B3, the binding result is “binds”.

Regarding B5, the binding entry is “binds”.

Turning to B6, the binding entry is recorded as “binds”.

The next test addresses T2, Ada2 ΔSWIRM (Δ residues 353–434) with 3xFlag on the N-terminus (S. cerevisiae). Described as above.
Take B4: the binding entry is “binds”.

Regarding B2, the binding result was “binds”.

B3: the binding entry is “binds”.

As for B6, the binding result was “binds”.
